From PubChem BioAssay AID445 (National Center for Advancing Translational Sciences (NCATS), 2006)
The list shows a part of the results. These are further read-outs of the screen, such as a control signal, another cell line or another target. No call is given for them. Compounds called inactive in the main read-out are mostly missing here. Words in brackets tell the shape of the fitted curve; partial curves, single points and poor fits give uncertain potencies.

Assay: IkB Signaling
Settings: ABC-DLBCL IkBa-CBG/CBR dual luciferase ratio (green luciferase fused to IkBa over red control in OCI-Ly3 lymphoma cells), 4 h
Outline: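 Luminescence ratio of IκBα-fused green versus native red beetle luciferase in OCI-Ly3 cells, 4 h post-doxycycline with compound; red signal alone, scaled from basal (0%) to zero light (-100%), flagged nonspecific or cytotoxic effects.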

[1] = measured here: control luc red channel unless noted

For `CCOC(=O)C1CCN(C(=O)C2CCN(c3nc4ccc(OC)cc4s3)CC2)CC1`, the AC50 [1] was 15.8 µM [falling, partial curve].
For `COc1ccc(OC)c2sc(N3CCN(C(=O)C4CC4)CC3)nc12`, the AC50 [1] was 1 µM [rising, full curve].
In the case of `COc1ccc(OC)c(-n2cnc3cc(C(=O)NC4CCCCCC4)ccc32)c1`, the AC50 [1] is reported as 20 µM [falling, partial curve].
With `COc1ccccc1NC(=O)c1cnc(SCC(=O)N2CCCc3ccccc32)n(C)c1=O` the AC50 [1] was 7.94 µM [falling, partial curve].
In the case of `Cc1cccc2sc(NC(=O)CN(C)S(=O)(=O)c3ccc(Br)s3)nc12`, the AC50 [1] is reported as 7.94 µM [falling, partial curve].
In the case of `CCOc1ccc(-c2csc(NC(=O)C3CCCO3)n2)cc1` (stereo not drawn), the AC50 [1] is reported as 20 µM [falling, single point].
For `COC(=O)c1c(Oc2ccc(C(C)=O)cc2)nnc(-c2ccccc2)c1-c1ccccc1`, the AC50 [1] was 15.8 µM [falling, partial curve].
In the case of `Cc1ccc(NC(=O)Cn2cc3c(n2)CCCCC3)cc1`, the AC50 [1] is reported as 5.01 µM [rising, partial curve].
In the case of `COC(=O)CS(=O)(=O)c1nnc([C@H](Cc2ccccc2)NC(=O)OC(C)(C)C)o1`, the AC50 [1] is reported as 12.6 µM [falling, partial curve].
In the case of `O=C(Nc1ccc(Cl)cc1Cl)c1cc(S(=O)(=O)N2CCc3ccccc32)ccc1F`, the AC50 [1] is reported as 12.6 µM [falling, partial curve].
With `CCc1ccc(C2CC(=O)Nc3cc4c(cc32)OCO4)cc1` (stereo not drawn) the AC50 [1] was 25.1 µM [falling, partial curve].
In the case of `Cc1cccc(N2CCN(C(=O)c3c(C)oc4ncnc(N5CCCCC5)c34)CC2)c1C`, the AC50 [1] is reported as 31.6 µM [falling, partial curve].
For `Cc1ccc(/C=C/c2nc3ccccc3[nH]2)cc1`, the AC50 [1] was 5.01 µM [falling, partial curve].
For `CC(C)COc1ccc(C(=O)N(Cc2ccc(N(C)C)cc2)Cc2ccco2)cc1`, the AC50 [1] was 31.6 µM [falling, partial curve].
In the case of `CC1CCCCN1c1nnc(NC(=O)Nc2ccccc2F)s1` (stereo not drawn), the AC50 [1] is reported as 15.8 µM [falling, partial curve].
For `CCC(c1nnnn1Cc1ccccc1)N(Cc1ccco1)Cc1cc2cc(OC)ccc2[nH]c1=O` (stereo not drawn), the AC50 [1] was 5.01 µM [rising, partial curve] [measured here: IkB-luc green channel].
With `CCn1c(C)nc2c(=O)oc3ccccc3c21` the AC50 [1] was 31.6 µM [falling, single point].
In the case of `CC1CCCN(C(=O)c2cc3c(Cl)nc4ccccc4c3s2)C1` (stereo not drawn), the AC50 [1] is reported as 25.1 µM [falling, partial curve].
With `O=C(c1ccco1)c1cn(CCOc2ccc(F)cc2)c2ccccc12` the AC50 [1] was 5.01 µM [falling, partial curve].
For `Cc1ccc(OCc2nc3ccccc3n2CCOc2ccc(Cl)cc2)cc1`, the AC50 [1] was 3.98 µM [falling, full curve].
For `CCc1cccc(CC)c1NC(=O)CN1C(=O)C(=O)c2ccccc21`, the AC50 (measured here: IkB-luc green channel) was 2.51 µM [rising, full curve, poor fit] and the AC50 (measured here: control luc red channel) was 0.794 µM [rising, full curve].
For `CC(C)c1ccc(NC(=O)Cn2c(=O)n(CCc3ccccc3)c(=O)c3ccccc32)cc1`, the AC50 [1] was 3.98 µM [falling, full curve, poor fit].
In the case of `O=S(=O)(c1ccc(Oc2ncnc3scc(-c4ccccc4)c23)cc1)N1CCOCC1`, the AC50 [1] is reported as 10 µM [falling, partial curve].
In the case of `Cc1ccc(C(=O)Nc2cccc(-c3nc4ccccc4o3)c2)c(Cl)c1`, the AC50 [1] is reported as 6.31 µM [falling, partial curve].
For `Cc1ccc(-c2nnc(Nc3cccc(O)c3)c3ccccc23)cc1S(=O)(=O)N1CCN(C)CC1`, the AC50 [1] was 25.1 µM [falling, partial curve].
In the case of `Cc1ccccc1OCC(O)Cn1c(=N)n(CCN2CCCCC2)c2ccccc21` (stereo not drawn), the AC50 [1] is reported as 12.6 µM [falling, partial curve].
For `COc1ccc(OC)c(NC(=O)c2c(NCc3cccs3)sc3c2CCCC3)c1`, the AC50 [1] was 3.98 µM [rising, partial curve, poor fit].
With `Cc1ccc(Cn2c(=O)n(CCCC(=O)NCc3ccccc3Cl)c(=O)c3ccccc32)cc1` the AC50 [1] was 0.398 µM [rising, full curve].
For `COC(=O)c1cnc(N2CCN(c3ccccc3F)CC2)c2ccccc12`, the AC50 [1] was 3.98 µM [falling, partial curve].
In the case of `COCCN1C(=O)c2[nH]nc(-c3cc(C)ccc3O)c2C1c1ccc(C(C)C)cc1` (stereo not drawn), the AC50 [1] is reported as 39.8 µM [falling, single point].
With `Cc1cccc(N2CCN(C(=O)CCc3c(C)nc4ncnn4c3C)CC2)c1C` the AC50 [1] was 10 µM [falling, partial curve].
In the case of `CCc1ccccc1NC(=O)c1cc(S(=O)(=O)N2CCCC2)cn1C`, the AC50 [1] is reported as 39.8 µM [falling, single point].
In the case of `O=C(Cc1ccccc1)Nc1cccc(-c2cn3cccnc3n2)c1`, the AC50 [1] is reported as 6.31 µM [rising, single point].
With `Cc1cccc(C)c1-n1ncc(C(=O)N2CCN(c3ccccc3)CC2)c1C1CCN(C(=O)OC(C)(C)C)CC1` the AC50 [1] was 15.8 µM [falling, partial curve].
In the case of `O=C(c1ccc(CSc2nc3ccncc3n2Cc2cccc(F)c2)cc1)N1CCCCCC1`, the AC50 [1] is reported as 15.8 µM [falling, partial curve].
In the case of `Cc1cncn1CCc1nc2c3ccccc3nc(SCC(=O)Nc3cccc(Cl)c3)n2n1`, the AC50 [1] is reported as 39.8 µM [falling, single point].
For `O=c1c(Cc2ccccc2O)c(O)nc2n1CCCS2`, the AC50 [1] was 5.01 µM [falling, partial curve].
For `CN(C(=O)CSc1cn(CC(=O)N2CCOCC2)c2ccccc12)c1ccccc1`, the AC50 [1] was 39.8 µM [falling, single point].
With `Cn1c(C(=O)Nc2ccc3c(c2)OCCO3)cc2sccc21` the AC50 [1] was 31.6 µM [falling, single point].
In the case of `CCCN(C(=O)c1noc2c1COc1ccc(C)cc1-2)c1ccc(Cl)c(Cl)c1`, the AC50 [1] is reported as 0.01 µM [rising, full curve, poor fit].
In the case of `COc1cc(NC(=O)CC2C(=O)N(c3cccc(C)c3)C(=O)N2Cc2ccc(F)cc2)cc(OC)c1` (stereo not drawn), the AC50 [1] is reported as 5.01 µM [falling, partial curve].
For `CC1=C(C#N)C(c2cn(-c3ccccc3)nc2-c2cccs2)C(C#N)=C(C)N1`, the AC50 [1] was 20 µM [falling, partial curve].
With `COc1cc(NS(=O)(=O)c2ccc3[nH]c4c(c3c2)CCCCCC4)cc(OC)c1` the AC50 [1] was 25.1 µM [falling, single point].
For `CCc1ccc(NC(=O)C(CC)n2c(=O)c(C(F)(F)F)nc3ccccc32)cc1` (stereo not drawn), the AC50 [1] was 25.1 µM [falling, partial curve, poor fit].
With `Cc1nc2nc(SCC(=O)NCc3ccccc3Cl)nn2c(C)c1Cc1ccccc1` the AC50 [1] was 15.8 µM [falling, partial curve].
With `CCOC(=O)Cn1c(=O)c2c(nc3n2CCN3c2ccc(CC)cc2)n(C)c1=O` the AC50 [1] was 12.6 µM [falling, partial curve].
With `Cc1ccc(-c2nnc(Nc3ccc(O)cc3)c3ccccc23)cc1S(=O)(=O)N1CCOCC1` the AC50 [1] was 6.31 µM [falling, partial curve].
In the case of `COc1ccc(-c2cc(C(=O)Nc3c(C)nn(Cc4ccc(C)cc4)c3C)no2)cc1OC`, the AC50 [1] is reported as 20 µM [falling, single point].
In the case of `COc1cccc(NS(=O)(=O)c2ccc(-c3cc(C)no3)s2)c1`, the AC50 [1] is reported as 39.8 µM [rising, single point].
For `Cc1ccc(NC(=O)CSc2cn(CC(=O)N3CCCCCC3)c3ccccc23)cc1`, the AC50 [1] was 10 µM [falling, partial curve].
With `Cc1cccc(N2CCN(C(=O)c3cnn(-c4cccc(Cl)c4C)c3C3CCNCC3)CC2)c1C` the AC50 [1] was 39.8 µM [falling, partial curve, poor fit].
With `O=C(NCC(c1cccnc1)N1CCc2ccccc2C1)C(=O)Nc1ccc(Cl)cc1` (stereo not drawn) the AC50 [1] was 5.01 µM [falling, partial curve].
With `Cc1ccc(-c2noc(CSc3nnc(Cc4ccccc4)n3-c3cccc(C)c3)n2)cc1` the AC50 [1] was 15.8 µM [falling, partial curve].
With `CCCc1nc2ccccc2n2c(-c3ccc(C)cc3)c3c(=O)n(C)c(=O)n(C)c3c12` the AC50 [1] was 25.1 µM [falling, partial curve].
For `CC(C)c1ccc(NC(=O)c2cccc3c2C(=O)N(C2CCCCC2)C3)cc1`, the AC50 [1] was 2.51 µM [falling, full curve].
In the case of `CC(=O)c1cccc(NC(=O)c2c(N3CCCC3=O)c3cc(F)ccc3n2C)c1`, the AC50 [1] is reported as 31.6 µM [falling, single point].
For `CCOCCCNC(=O)C(c1ccc(C)cc1)N(Cc1cccs1)C(=O)c1ccc(NC(C)=O)cc1` (stereo not drawn), the AC50 [1] was 10 µM [falling, partial curve].
With `CCSc1ncc(Cl)c(C(=O)Nc2c(C(=O)c3ccc(C)c(F)c3)oc3ccccc23)n1` the AC50 [1] was 0.126 µM [rising, partial curve, poor fit].
For `CCN(CC)C(=O)c1sc2c(c1C)c(=O)n(Cc1ccccc1)c(=O)n2Cc1ccc(Cl)cc1`, the AC50 [1] was 12.6 µM [falling, partial curve, poor fit].
In the case of `O=C(CCS(=O)(=O)c1nc(-c2ccc3c(c2)OCO3)cc(C(F)(F)F)n1)Nc1ccccc1F`, the AC50 [1] is reported as 12.6 µM [falling, partial curve].
With `O=c1oc2ccccc2c(O)c1CN1CCCCC1` the AC50 [1] was 0.0794 µM [falling, full curve].
With `CCc1cccc(-n2nnc(-c3nc(-c4ccccc4Cl)no3)c2N)c1` the AC50 [1] was 0.02 µM [rising, full curve].
